The values below come from publication PMC12081870 (Communications Biology, 2025).

The test concerns the target T1, Sla1 SH3#3 (aa 354-413) (S. cerevisiae) (UniProt P32790).
T1 sequence (chain, 15N-labelled (NMR only)): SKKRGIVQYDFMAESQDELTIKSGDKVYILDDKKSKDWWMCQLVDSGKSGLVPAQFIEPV
Briefly: NMR titration; 15N-labelled Sla1 SH3 domains, 1H-15N HSQC; concentrated peptide stocks in the same buffer and pH added stepwise (0 to 8 equivalents shown); shift changes fitted to the standard quadratic equation; both purified.

No constants are given. Whether binding was seen depends on the method and setting. Some results given as binding are weak or reduced against the parent protein; the word gives no strength.

B1: Las17 peptide p3 (PP3 motif) (peptide)
peptide: LPAQTGRRGPAPPPPPRASRPTP
notes: Las17, S. cerevisiae, third PP motif; also called peptide 3; source: synthetic peptide (GenScript Biotech, UK)
For B1, the binding entry is listed as “binds weakly”.

B2: Las17 peptide p1 (PP1 motif) (peptide)
peptide: RNNRPVPPPPPMRTTTEGSGVR
notes: Las17, S. cerevisiae, first PP motif; also called peptide 1; source: synthetic peptide (GenScript Biotech, UK)
On to B2, for which the binding result is listed as “binds weakly”.
